At least one structure is not confirmed: it was looked up by name or label, or the drawing left a doubt.
Assay: Urine odor and secondary odor panel ranking, dye powders in urine, 8 millimolar (Example 7)
Design: species or system human
Settings: scale 1 to 5, 5 extremely unpleasant, individual panelists' scores
Experimental: Qualitative odor reduction was also assessed against common odors, such as garlic and urine. Specifically, panelists assessed odorant-containing jars by carefully unscrewing, and then raising the lid of each jar in a controlled manner, such that the odor was not diluted by the ambient air. The jars were wrapped and coded to ensure that the sample identity was unknown.
The effectiveness of various dyes in reducing urine odor was compared. […] Human female urine was initially collected and pooled by a nurse on staff at Kimberly-Clark Corporation. The pooled urine was added to mason jars in 50-milliliter aliquots using an automated pipette aid. Powders of the aforementioned dyes (commercially available from Sigma-Aldrich Chemical Co., Inc. of St. Louis, Mo. and Noveon Hilton Davis, Inc. of Cincinnati, Ohio) were weighed and placed into the mason jars containing 50 milliliters of urine so that the final concentration of the dye powder was 8 millimolar (equivalent to 0.5 wt. %). The mason jars were placed in an incubator overnight at 37° C.
To aid in the assessment of the dyes, the mason jars were divided into two groups for a morning assessment, and the best of both groups were compared in an afternoon assessment (after a total of 24 hours). In addition to ranking the jars from least to most malodorous (on a scale from 1 to 7, with 7 being the most malodors), panelists were also asked to judge whether there were secondary (non-urine) odors present and, if so, the extent that the secondary odors were unpleasant (on a scale from 1 to 5, with 5 being extremely unpleasant).
In this assessment, panelists were given instructions to rank the least malodorous jar as “1” and the most malodorous jar as “10,” remaining free to rank the other jars between 2-9.

SMILES	Secondary Odor Ranking (Second Grouping)	Secondary Odor Ranking (After 24 Hours)
O=C1C=C(S(=O)(=O)[O-])C(=O)c2ccccc21.[K+] [1,4 Naphthaquinone, 1,4 naphthaquinone-2-sulfonic acid potassium salt]	5, 3, 5, 4	
Nc1cc(S(=O)(=O)[O-])c(O)c2c1C(=O)c1c(O)c(S(=O)(=O)[O-])cc(N)c1C2=O.[Na+].[Na+] [Acid Blue 45]	4, 4	
Cc1ccc(Nc2ccc(Nc3ccc(C)cc3S(=O)(=O)[O-])c3c2C(=O)c2c(O)ccc(O)c2C3=O)c(S(=O)(=O)[O-])c1.[Na+].[Na+] [Acid Green 41]		1, 3, 2
